Test results: the supplement of paper PMC10849652
The list shows a part of the results.

Chains of the proteins cited; added tags and fusions are not shown. Lines headed by an entry give the natural chain unless they say otherwise; changes in a name come on top.
UniProt Q96GS4: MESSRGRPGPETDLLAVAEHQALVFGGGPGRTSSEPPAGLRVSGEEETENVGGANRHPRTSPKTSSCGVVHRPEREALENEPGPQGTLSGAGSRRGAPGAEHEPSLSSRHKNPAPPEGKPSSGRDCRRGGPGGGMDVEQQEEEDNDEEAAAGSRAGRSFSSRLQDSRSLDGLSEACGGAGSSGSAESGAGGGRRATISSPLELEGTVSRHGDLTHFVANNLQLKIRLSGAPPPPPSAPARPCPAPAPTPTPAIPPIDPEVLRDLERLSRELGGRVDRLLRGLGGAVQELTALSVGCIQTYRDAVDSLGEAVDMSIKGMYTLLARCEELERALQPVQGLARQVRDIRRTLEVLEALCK
UniProt Q8WUW1: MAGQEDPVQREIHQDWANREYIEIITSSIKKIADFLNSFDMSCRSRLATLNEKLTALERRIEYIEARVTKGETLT
UniProt Q13867: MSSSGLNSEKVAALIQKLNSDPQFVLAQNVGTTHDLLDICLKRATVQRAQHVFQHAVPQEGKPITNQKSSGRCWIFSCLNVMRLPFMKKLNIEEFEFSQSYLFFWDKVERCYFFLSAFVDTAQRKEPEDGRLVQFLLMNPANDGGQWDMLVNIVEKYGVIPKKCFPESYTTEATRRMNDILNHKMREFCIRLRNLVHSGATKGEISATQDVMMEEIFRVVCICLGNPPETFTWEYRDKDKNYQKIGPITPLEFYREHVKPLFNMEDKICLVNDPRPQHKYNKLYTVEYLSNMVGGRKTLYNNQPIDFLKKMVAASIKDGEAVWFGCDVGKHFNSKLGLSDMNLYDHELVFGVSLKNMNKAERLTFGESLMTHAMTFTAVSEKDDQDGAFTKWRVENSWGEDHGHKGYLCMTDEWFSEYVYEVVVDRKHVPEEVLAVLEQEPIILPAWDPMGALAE
UniProt Q6QNY1: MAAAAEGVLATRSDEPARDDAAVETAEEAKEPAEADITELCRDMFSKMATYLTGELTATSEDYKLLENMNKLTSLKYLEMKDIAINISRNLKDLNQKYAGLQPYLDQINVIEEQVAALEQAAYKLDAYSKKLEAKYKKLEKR
UniProt Q9P287, whole entry, looked up: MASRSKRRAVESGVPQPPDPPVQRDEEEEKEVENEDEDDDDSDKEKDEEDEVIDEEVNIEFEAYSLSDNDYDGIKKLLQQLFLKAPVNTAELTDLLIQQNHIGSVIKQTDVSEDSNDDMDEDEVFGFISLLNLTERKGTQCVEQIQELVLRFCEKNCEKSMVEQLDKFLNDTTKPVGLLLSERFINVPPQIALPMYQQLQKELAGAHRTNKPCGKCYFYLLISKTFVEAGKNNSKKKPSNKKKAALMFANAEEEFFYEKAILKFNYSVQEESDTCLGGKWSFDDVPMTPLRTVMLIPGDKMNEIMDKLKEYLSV
UniProt Q15059, whole entry, looked up: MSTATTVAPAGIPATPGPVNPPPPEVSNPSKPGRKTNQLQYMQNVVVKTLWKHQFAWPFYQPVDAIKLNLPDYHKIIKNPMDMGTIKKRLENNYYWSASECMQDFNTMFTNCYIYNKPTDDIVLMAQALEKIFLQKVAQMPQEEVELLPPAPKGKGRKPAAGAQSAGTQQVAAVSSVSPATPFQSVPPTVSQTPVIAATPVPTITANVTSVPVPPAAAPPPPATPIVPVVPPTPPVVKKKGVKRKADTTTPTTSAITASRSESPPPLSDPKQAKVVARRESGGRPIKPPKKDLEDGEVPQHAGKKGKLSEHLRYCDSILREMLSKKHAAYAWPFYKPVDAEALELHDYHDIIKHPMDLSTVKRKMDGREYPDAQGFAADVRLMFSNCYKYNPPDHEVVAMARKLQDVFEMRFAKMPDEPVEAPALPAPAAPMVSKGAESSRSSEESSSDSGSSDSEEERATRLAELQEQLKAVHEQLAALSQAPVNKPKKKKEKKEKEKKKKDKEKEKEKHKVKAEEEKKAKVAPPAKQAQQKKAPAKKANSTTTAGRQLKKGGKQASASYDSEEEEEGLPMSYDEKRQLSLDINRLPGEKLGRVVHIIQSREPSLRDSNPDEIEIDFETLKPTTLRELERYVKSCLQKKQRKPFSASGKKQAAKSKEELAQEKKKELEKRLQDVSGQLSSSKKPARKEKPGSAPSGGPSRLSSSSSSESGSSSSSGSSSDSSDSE
UniProt Q6QNY0: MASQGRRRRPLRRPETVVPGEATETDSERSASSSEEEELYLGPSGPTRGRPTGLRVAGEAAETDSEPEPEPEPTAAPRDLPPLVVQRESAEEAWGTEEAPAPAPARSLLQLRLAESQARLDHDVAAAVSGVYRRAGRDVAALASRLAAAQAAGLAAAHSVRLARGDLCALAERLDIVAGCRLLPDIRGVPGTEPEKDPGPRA
UniProt Q6PGQ7, whole entry, looked up: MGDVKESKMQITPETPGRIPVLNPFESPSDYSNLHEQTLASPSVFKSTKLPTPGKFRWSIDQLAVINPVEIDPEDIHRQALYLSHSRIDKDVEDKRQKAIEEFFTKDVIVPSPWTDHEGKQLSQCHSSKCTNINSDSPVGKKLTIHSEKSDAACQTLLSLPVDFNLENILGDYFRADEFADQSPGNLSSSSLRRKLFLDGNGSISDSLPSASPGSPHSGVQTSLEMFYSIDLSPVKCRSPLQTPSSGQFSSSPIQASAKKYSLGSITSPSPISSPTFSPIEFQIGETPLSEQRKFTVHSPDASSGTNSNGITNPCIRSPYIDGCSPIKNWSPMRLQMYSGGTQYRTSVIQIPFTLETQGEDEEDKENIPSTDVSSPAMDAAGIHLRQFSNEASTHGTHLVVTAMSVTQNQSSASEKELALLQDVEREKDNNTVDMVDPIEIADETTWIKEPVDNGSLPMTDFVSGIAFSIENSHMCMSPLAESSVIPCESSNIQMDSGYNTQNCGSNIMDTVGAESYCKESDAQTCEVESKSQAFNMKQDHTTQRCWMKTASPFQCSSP
UniProt Q14692: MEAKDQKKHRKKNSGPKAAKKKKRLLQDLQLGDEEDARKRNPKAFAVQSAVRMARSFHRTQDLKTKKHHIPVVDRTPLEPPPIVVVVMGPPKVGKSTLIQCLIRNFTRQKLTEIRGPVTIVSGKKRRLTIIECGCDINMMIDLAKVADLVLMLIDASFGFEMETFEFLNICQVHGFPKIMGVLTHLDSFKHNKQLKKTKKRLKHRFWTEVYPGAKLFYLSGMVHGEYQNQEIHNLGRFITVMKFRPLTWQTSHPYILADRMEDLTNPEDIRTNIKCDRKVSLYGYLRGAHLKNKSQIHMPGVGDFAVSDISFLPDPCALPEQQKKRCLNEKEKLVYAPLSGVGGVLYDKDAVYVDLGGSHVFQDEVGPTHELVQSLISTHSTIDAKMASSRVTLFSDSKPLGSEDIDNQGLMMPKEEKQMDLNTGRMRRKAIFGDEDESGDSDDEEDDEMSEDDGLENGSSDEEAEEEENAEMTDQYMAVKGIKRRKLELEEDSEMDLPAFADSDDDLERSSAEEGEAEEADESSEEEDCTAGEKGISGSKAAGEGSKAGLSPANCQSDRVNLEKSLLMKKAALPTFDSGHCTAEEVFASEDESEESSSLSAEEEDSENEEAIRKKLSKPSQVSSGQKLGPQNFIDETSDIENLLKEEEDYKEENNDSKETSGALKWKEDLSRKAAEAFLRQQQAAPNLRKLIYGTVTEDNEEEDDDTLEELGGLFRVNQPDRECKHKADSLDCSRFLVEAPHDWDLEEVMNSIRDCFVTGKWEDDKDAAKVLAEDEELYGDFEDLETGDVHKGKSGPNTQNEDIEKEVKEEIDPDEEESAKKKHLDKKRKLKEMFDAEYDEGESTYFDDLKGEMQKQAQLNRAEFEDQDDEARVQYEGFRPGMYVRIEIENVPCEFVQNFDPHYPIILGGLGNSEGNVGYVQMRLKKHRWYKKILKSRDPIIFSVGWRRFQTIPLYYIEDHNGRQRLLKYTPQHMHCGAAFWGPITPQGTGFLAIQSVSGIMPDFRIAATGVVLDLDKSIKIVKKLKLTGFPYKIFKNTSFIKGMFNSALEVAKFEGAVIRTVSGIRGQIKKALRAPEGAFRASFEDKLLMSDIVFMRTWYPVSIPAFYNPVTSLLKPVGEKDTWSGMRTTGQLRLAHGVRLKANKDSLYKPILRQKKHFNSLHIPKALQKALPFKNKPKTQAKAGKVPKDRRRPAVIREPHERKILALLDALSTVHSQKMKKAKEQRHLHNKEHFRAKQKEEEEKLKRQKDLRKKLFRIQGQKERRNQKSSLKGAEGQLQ
UniProt Q9H0E9, whole entry, looked up: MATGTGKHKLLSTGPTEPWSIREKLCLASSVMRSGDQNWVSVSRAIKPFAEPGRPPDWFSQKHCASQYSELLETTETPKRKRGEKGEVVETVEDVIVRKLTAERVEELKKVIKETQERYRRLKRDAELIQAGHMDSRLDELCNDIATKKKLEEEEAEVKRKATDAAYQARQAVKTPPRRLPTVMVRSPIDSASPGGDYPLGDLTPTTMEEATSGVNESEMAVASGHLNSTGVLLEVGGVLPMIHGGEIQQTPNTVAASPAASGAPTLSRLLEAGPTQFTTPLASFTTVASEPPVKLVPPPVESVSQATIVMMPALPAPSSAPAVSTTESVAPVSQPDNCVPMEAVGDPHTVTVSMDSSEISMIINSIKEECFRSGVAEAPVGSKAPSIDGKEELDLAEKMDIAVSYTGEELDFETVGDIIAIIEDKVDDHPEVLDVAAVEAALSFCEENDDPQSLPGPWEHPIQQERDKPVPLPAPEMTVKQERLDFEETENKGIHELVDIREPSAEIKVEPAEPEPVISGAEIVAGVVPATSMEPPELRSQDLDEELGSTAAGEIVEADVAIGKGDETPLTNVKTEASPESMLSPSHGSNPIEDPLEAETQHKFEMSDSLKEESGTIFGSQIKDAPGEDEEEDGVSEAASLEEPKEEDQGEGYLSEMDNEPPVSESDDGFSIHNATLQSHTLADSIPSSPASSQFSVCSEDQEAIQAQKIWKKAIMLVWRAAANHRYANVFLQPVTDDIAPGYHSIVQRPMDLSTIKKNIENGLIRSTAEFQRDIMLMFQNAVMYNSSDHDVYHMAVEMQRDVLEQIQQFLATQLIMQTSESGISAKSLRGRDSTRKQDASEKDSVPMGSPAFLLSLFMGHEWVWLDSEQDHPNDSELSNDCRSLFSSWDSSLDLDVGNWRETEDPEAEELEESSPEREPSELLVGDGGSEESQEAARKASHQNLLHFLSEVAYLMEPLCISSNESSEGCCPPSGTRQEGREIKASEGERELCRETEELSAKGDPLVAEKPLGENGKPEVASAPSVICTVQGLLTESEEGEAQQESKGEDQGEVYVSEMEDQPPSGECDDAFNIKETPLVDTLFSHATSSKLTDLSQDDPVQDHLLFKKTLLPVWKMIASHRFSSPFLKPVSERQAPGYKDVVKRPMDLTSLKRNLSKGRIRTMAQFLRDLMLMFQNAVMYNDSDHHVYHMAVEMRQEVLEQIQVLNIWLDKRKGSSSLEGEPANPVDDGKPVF
UniProt Q9UHQ4: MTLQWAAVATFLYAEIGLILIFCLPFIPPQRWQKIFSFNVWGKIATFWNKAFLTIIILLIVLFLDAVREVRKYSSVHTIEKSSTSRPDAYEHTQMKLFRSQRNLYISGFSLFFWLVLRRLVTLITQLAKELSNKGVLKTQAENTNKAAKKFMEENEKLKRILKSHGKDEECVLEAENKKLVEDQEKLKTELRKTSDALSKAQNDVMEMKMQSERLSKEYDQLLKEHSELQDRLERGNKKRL
UniProt Q92560: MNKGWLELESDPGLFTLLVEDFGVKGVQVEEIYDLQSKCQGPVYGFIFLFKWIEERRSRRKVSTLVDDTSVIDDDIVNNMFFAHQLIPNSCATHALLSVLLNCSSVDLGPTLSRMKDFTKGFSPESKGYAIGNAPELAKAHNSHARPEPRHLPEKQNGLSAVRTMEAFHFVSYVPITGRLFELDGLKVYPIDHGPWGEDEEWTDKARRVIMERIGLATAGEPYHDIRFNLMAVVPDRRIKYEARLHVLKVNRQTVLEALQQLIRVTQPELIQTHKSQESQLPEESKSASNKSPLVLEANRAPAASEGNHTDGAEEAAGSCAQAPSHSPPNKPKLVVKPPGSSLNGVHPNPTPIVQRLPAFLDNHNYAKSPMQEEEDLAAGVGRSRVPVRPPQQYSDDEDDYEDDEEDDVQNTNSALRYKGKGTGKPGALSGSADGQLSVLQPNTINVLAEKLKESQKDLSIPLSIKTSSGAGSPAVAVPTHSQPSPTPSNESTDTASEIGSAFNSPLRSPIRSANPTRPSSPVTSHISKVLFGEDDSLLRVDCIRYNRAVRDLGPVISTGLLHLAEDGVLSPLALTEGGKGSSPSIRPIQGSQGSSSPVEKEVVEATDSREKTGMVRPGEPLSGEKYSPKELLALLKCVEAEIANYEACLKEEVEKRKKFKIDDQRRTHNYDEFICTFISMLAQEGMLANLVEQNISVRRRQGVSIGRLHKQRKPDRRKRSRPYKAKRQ
UniProt Q9NYM9: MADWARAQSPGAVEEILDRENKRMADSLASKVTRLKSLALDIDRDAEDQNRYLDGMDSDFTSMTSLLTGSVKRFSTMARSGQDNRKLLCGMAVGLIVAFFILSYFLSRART
UniProt Q9H3K6: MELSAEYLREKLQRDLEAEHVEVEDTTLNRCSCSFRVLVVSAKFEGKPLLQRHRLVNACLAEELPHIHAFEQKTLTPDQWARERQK

compound: CC1=C2C(=CC=C1)N=C(N(C2=O)C3=CC=CC=C3C)CN4C=NC5=C(N=CN=C54)N; experiment: log2 fold change, soluble protein after heating vs DMSO (PISA); higher = thermal stabilisation; K562 lysate, 10 uM; active = over 0.2 and 3.5 SD of the protein, either way, in both replicates (recomputed)
Procedure, shortened: (§1)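 Dounce homogenisation of K562 pellets in PBS pH 7.4 with 1 mM MgCl2 produced a crude extract, used at 1 mg/mL protein. Exposure to 10 μM compound lasted 30 min, and aliquots were then heated for 3 min across 48°C-58°C, pooled and brought to 0.5% NP-40 at 4°C. The supernatant after 21,000xg for 90 min was quantified by TMTpro 16plex LC-MS/MS with channel sums equalised. Duplicate values are given as log-two fold change in thermal stability relative to solvent controls.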

Target	log2 fold change
BORCS6 (UniProt Q96GS4)	inactive: 0.076
BRK1 isoform 2 (UniProt Q8WUW1)	inactive: -0.011
BLMH (UniProt Q13867)	inactive: -0.018
BLOC1S2 (UniProt Q6QNY1)	inactive: -0.09
BOD1L1 (UniProt Q8NFC6)	inactive: -0.001
BCCIP isoform 2 (UniProt Q9P287)	inactive: -0.028
BSG (UniProt P35613)	inactive: -0.005
BRD3 (UniProt Q15059)	inactive: 0.112
BLOC1S3 (UniProt Q6QNY0)	inactive: 0.026
BORA (UniProt Q6PGQ7)	inactive: -0.251
BMS1 (UniProt Q14692)	inactive: 0.027
BRD8 isoform 2 (UniProt Q9H0E9)	inactive: 0.003
BCAP29 isoform 2 (UniProt Q9UHQ4)	inactive: 0
BAP1 (UniProt Q92560)	inactive: 0.011

compound: Cc1sc2c(c1C)C(c1ccc(Cl)cc1)=N[C@@H](CC(=O)OC(C)(C)C)c1nnc(C)n1-2; experiment: as above
Procedure, shortened: as §1

Target	log2 fold change
BACH1 (UniProt O14867)	inactive: -0.044
BET1L (UniProt Q9NYM9)	inactive: -0.01
BRI3BP (UniProt Q8WY22)	inactive: 0.019
BIRC2 (UniProt Q13490)	inactive: 0.019
BOLA2 (UniProt Q9H3K6)	inactive: 0.034
BTD isoform 3 (UniProt P43251)	inactive: 0.021
BICD1 (UniProt Q96G01)	inactive: 0.046
BAZ1B (UniProt Q9UIG0)	inactive: -0.015
BTF3 (UniProt P20290)	inactive: -0.017
BOP1 (UniProt Q14137)	inactive: 0.002
BLVRA (UniProt P53004)	inactive: 0.009
BRAT1 (UniProt Q6PJG6)	inactive: 0.005
BCL2L13 (UniProt Q9BXK5)	inactive: -0.013
BANP (UniProt Q8N9N5)	inactive: 0.04
BST2 (UniProt Q10589)	inactive: 0.014
BTF3L4 (UniProt Q96K17)	inactive: -0.058
BAZ1A (UniProt Q9NRL2)	inactive: 0.036
BCL7B (UniProt Q9BQE9)	inactive: 0.122
BAG3 (UniProt O95817)	inactive: -0.001

Target	log2 fold change
BPNT1 (UniProt A6NF51)	inactive: -0.197
BAG5 isoform 2 (UniProt Q9UL15)	inactive: 0.021
BRIX1 (UniProt Q8TDN6)	inactive: -0.032
BLOC1S1 (UniProt P78537)	inactive: -0.002
BORCS6 (UniProt Q96GS4)	inactive: -0.01
BRK1 isoform 2 (UniProt Q8WUW1)	inactive: 0.019
BLMH (UniProt Q13867)	inactive: -0.027
BLOC1S2 (UniProt Q6QNY1)	inactive: -0.096
BOD1L1 (UniProt Q8NFC6)	inactive: -0.051
BCCIP isoform 2 (UniProt Q9P287)	inactive: -0.008
BSG (UniProt P35613)	inactive: -0.007
BRD3 (UniProt Q15059)	active: 0.5
BLOC1S3 (UniProt Q6QNY0)	inactive: 0.057
BORA (UniProt Q6PGQ7)	inactive: 0.158
BMS1 (UniProt Q14692)	inactive: 0.013
BRD8 isoform 2 (UniProt Q9H0E9)	inactive: -0.024
BCAP29 isoform 2 (UniProt Q9UHQ4)	inactive: -0.005
BAP1 (UniProt Q92560)	inactive: 0.043

compound: c1ccc([C@@H]2C[C@H]2NC2CCNCC2)cc1; experiment: as above
Procedure, shortened: as §1

Target	log2 fold change
BACH1 (UniProt O14867)	inactive: -0.011
BET1L (UniProt Q9NYM9)	inactive: 0.053
BRI3BP (UniProt Q8WY22)	inactive: 0.117
BIRC2 (UniProt Q13490)	inactive: -0.028
BOLA2 (UniProt Q9H3K6)	inactive: 0.078
BTD isoform 3 (UniProt P43251)	inactive: 0.035
BICD1 (UniProt Q96G01)	inactive: 0.027
BAZ1B (UniProt Q9UIG0)	inactive: 0.058
BTF3 (UniProt P20290)	inactive: 0.012
BOP1 (UniProt Q14137)	inactive: -0.017
BLVRA (UniProt P53004)	inactive: 0.015
BRAT1 (UniProt Q6PJG6)	inactive: 0.003
BCL2L13 (UniProt Q9BXK5)	inactive: -0.027
BANP (UniProt Q8N9N5)	inactive: -0.05
BST2 (UniProt Q10589)	inactive: -0.045
BTF3L4 (UniProt Q96K17)	inactive: -0.031
BAZ1A (UniProt Q9NRL2)	inactive: 0.003
BCL7B (UniProt Q9BQE9)	inactive: 0.188

Target	log2 fold change
BAG3 (UniProt O95817)	inactive: -0.007
BAG5 isoform 2 (UniProt Q9UL15)	inactive: -0.021
BRIX1 (UniProt Q8TDN6)	inactive: 0.022
BLOC1S1 (UniProt P78537)	inactive: 0.039
BORCS6 (UniProt Q96GS4)	inactive: 0.007
BRK1 isoform 2 (UniProt Q8WUW1)	inactive: 0.141
BLMH (UniProt Q13867)	inactive: -0.058
BLOC1S2 (UniProt Q6QNY1)	inactive: -0.091
BOD1L1 (UniProt Q8NFC6)	inactive: -0.052
BCCIP isoform 2 (UniProt Q9P287)	inactive: 0.055
BSG (UniProt P35613)	inactive: 0.008
BRD3 (UniProt Q15059)	inactive: -0.167
BLOC1S3 (UniProt Q6QNY0)	inactive: -0.027
BORA (UniProt Q6PGQ7)	inactive: -0.126
BMS1 (UniProt Q14692)	inactive: -0.029
BRD8 isoform 2 (UniProt Q9H0E9)	inactive: -0.014
BCAP29 isoform 2 (UniProt Q9UHQ4)	inactive: -0.033
BAP1 (UniProt Q92560)	inactive: -0.034
